Test results: the supplement of paper PMC12819154, “High-throughput peptide-centric local stability assay extends protein–ligand identification to membrane proteins, tissues and bacteria” (Nature Structural & Molecular Biology, 2025)
Some of the results follow. Most values lie at the level of the controls, where differences are scatter.

Protein sequences, listed by entry. Tags and fused reporters are not part of them. Lines headed by an entry give the natural chain unless they say otherwise; changes in a name come on top.
UniProt Q9NPF5, whole entry: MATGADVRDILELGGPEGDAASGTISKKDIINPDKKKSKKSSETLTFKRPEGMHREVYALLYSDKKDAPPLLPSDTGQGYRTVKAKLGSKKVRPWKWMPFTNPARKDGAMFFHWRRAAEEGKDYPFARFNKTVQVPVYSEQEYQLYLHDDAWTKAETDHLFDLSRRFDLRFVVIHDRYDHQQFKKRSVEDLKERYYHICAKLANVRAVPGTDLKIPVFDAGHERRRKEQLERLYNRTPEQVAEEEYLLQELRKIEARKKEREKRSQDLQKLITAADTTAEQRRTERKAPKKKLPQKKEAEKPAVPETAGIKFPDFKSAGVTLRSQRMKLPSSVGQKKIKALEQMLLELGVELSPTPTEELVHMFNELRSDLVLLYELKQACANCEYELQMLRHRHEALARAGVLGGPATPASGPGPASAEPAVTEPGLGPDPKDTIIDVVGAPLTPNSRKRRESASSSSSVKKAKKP
UniProt Q9H9Y2: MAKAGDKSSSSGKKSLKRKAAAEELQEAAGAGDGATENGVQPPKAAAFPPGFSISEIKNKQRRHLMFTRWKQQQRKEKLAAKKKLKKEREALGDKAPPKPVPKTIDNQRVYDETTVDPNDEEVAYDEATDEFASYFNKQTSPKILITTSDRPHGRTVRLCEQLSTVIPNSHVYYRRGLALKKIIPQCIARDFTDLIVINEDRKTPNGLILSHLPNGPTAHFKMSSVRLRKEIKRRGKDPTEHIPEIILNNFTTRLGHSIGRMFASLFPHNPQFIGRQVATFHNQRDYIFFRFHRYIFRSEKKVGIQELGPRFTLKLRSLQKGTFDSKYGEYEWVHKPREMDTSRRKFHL
UniProt Q9NQ35: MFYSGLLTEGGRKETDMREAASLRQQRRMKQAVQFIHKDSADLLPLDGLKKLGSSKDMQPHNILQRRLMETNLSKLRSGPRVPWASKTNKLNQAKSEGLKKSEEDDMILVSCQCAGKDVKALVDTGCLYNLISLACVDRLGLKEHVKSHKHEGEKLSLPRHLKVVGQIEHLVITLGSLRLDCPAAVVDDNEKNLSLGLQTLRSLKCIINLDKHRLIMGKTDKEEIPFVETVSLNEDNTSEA
UniProt Q9H910: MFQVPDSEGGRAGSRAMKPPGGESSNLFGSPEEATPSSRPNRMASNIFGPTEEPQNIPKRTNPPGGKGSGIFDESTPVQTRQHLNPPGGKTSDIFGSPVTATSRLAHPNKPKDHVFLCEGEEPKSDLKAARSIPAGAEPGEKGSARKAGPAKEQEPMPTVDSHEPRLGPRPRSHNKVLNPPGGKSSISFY
UniProt Q9HC62: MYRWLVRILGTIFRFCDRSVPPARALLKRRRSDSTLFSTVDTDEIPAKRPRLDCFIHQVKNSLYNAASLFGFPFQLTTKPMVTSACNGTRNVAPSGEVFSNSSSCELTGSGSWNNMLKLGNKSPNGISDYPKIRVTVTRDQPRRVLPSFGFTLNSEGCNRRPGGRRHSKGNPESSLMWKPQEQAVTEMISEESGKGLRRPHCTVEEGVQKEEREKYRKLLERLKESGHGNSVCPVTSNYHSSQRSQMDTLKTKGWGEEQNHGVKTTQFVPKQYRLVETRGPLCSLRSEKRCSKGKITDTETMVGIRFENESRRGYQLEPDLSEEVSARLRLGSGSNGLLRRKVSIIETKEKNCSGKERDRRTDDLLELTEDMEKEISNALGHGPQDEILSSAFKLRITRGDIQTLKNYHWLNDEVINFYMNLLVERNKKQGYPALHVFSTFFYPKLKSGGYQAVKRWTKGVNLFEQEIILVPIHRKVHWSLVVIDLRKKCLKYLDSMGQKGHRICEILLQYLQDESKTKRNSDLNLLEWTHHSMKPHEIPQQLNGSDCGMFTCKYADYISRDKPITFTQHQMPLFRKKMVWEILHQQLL
UniProt Q9H6E5: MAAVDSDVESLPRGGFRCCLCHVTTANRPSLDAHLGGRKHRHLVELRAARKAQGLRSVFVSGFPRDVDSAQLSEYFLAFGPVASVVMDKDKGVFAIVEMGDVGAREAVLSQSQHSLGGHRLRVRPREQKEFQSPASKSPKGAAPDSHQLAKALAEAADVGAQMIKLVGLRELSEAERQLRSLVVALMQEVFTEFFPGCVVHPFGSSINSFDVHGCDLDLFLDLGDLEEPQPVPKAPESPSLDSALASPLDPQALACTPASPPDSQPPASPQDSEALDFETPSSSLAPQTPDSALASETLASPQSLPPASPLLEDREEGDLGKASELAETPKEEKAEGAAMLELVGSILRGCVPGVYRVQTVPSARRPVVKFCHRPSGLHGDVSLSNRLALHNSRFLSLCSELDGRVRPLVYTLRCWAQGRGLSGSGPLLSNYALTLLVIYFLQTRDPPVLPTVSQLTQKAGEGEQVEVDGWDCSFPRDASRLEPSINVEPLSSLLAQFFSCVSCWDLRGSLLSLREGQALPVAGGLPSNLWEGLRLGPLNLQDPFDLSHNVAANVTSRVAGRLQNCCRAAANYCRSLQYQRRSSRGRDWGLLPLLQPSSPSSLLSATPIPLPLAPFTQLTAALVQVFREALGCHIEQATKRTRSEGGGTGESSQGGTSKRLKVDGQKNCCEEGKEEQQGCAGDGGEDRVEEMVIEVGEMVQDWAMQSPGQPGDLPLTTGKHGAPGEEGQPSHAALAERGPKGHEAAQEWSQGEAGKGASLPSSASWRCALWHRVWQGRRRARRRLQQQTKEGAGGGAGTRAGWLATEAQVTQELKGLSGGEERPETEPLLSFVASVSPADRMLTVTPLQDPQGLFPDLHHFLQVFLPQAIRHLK
UniProt Q9HCM9: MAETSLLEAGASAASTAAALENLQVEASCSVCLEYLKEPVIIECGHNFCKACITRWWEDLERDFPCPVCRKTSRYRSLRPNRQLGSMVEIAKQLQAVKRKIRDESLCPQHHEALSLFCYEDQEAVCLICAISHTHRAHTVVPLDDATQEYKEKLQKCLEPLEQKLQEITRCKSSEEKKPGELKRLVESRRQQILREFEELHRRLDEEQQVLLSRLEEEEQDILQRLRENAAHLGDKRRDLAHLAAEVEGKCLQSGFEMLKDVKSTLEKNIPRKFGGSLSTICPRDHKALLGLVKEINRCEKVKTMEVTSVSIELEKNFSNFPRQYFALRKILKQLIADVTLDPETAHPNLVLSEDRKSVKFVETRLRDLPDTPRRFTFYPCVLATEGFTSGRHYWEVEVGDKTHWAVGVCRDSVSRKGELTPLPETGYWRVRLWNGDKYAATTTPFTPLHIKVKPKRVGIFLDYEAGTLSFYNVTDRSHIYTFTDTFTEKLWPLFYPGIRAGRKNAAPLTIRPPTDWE
UniProt Q9NNW7, whole entry: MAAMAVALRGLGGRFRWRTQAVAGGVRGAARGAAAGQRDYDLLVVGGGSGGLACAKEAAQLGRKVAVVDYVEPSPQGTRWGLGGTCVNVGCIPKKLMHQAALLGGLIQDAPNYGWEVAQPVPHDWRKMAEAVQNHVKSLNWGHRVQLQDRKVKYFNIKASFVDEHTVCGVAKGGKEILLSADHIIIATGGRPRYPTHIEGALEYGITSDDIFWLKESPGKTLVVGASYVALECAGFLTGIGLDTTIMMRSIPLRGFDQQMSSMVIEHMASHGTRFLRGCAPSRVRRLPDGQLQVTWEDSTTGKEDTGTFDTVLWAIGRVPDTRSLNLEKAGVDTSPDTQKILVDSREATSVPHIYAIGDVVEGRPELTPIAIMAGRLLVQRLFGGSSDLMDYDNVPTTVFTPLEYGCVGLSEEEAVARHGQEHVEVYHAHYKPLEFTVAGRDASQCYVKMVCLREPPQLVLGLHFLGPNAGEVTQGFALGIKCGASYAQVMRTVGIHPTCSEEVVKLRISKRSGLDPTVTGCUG
UniProt Q9H6P5: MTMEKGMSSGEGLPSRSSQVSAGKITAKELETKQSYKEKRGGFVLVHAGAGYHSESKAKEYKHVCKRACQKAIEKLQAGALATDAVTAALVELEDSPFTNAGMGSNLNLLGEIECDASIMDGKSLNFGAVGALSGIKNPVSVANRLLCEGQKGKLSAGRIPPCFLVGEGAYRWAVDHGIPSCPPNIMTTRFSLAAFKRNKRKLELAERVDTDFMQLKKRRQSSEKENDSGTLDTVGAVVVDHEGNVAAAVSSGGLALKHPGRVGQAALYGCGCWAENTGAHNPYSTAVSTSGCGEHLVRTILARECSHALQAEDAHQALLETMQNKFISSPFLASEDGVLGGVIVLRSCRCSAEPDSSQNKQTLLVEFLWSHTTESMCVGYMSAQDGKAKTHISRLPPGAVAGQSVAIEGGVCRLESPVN
UniProt Q9NQ31: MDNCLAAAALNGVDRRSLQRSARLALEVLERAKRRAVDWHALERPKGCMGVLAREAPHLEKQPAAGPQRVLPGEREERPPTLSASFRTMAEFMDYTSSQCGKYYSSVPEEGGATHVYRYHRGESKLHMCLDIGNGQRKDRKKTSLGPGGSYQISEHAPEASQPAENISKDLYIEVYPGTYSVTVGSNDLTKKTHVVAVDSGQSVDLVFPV
UniProt Q9NPI6: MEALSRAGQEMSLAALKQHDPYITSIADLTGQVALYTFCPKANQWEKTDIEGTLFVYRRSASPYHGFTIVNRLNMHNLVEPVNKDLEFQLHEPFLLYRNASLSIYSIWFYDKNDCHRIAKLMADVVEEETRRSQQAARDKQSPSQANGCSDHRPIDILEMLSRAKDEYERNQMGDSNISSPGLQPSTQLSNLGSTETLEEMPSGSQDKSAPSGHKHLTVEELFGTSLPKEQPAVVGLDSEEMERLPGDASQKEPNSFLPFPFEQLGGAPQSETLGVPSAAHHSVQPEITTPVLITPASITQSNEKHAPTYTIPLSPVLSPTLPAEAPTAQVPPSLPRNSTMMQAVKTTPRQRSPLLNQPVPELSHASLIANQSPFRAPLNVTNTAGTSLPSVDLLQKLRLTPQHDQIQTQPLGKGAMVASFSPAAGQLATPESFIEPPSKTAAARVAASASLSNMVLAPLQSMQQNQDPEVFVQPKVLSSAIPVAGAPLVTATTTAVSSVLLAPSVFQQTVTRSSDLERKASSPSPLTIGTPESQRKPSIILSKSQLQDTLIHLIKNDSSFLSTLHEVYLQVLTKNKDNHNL
UniProt Q9H967: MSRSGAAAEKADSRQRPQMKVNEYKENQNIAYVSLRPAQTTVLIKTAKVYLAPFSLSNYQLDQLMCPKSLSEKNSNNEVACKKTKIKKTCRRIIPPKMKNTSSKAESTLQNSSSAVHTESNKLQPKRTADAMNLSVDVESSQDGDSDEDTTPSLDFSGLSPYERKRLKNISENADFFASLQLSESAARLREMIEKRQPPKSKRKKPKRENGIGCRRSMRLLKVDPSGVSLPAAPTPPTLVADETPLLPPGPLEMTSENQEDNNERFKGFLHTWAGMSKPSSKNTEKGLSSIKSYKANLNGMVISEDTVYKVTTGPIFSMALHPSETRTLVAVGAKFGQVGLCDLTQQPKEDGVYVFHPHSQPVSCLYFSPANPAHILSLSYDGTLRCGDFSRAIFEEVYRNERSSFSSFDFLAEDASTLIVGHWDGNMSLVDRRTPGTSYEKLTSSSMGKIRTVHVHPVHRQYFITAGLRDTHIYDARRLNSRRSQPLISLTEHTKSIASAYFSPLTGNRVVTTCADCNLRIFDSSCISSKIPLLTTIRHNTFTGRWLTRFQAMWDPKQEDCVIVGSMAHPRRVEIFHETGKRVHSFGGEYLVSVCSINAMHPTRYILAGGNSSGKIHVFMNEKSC
UniProt Q9H6T3, whole entry: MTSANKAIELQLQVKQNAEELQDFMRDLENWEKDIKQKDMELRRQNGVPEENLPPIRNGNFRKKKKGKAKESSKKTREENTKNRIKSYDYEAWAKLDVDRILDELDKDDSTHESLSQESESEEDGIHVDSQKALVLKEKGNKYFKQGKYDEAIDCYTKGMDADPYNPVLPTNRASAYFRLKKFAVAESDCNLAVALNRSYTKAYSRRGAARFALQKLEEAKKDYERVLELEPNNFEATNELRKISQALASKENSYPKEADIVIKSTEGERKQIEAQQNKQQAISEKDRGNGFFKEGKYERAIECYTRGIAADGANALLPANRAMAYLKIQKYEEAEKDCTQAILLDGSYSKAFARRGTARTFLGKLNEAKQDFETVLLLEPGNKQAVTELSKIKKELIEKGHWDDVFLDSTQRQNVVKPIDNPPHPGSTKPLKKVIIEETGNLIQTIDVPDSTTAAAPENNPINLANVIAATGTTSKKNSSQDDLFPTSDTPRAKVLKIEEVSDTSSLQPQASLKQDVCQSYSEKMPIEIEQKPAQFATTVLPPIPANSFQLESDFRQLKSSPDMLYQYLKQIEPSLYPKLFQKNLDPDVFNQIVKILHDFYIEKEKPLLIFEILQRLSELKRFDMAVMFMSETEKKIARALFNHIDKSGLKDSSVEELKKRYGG
UniProt Q9H7J1: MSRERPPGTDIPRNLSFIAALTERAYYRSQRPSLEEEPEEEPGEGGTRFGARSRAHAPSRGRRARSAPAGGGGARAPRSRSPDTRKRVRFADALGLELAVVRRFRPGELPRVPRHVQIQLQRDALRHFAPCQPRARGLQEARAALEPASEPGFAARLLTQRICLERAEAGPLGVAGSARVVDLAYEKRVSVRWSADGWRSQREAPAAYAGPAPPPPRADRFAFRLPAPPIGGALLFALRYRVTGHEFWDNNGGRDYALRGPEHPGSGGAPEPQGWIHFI

compound: CN[C@@H]1C[C@H]2O[C@@](C)([C@@H]1OC)n1c3ccccc3c3c4c(c5c6ccccc6n2c5c31)C(=O)NC4 [staurosporine]; test: log2 fold change of tryptic peptide abundance, ligand vs vehicle (limited proteolysis) (log2 ratio); higher = more trypsin-susceptible (destabilized); conditions: ligand concentration: 20 uM; sample: K562 cleared lysate; digestion: 4 min, 22 C (HT-PELSA RT4min, Orbitrap Astral)

Target | log2 fold change
DMAP1 (peptide sequence: DTIIDVVGAPLTPNSR, peptide start residue: 434) (UniProt Q9NPF5) | 0.4
RPF1 (peptide sequence: VGIQELGPR, peptide start residue: 303) (UniProt Q9H9Y2) | 0.334
NRIP3 (peptide sequence: DSADLLPLDGLKK, peptide start residue: 39) (UniProt Q9NQ35) | 0.466
ZBTB3 (peptide sequence: QSSSGGGPPK, peptide start residue: 555) (UniProt Q9H5J0) | -0.492
UniProt Q9HCG1 (peptide sequence: MYECNQVEK, peptide start residue: 201) | -0.3
UniProt Q9HCE0 (peptide sequence: VHPGDNVGTKVETPK, peptide start residue: 122) | -0.252
JPT2 (peptide sequence: QHLNPPGGK, peptide start residue: 82) (UniProt Q9H910) | 0.158
SENP2 (peptide sequence: LGSGSNGLLR, peptide start residue: 331) (UniProt Q9HC62) | 0.238
MRPL47 (peptide sequence: NMLLTLEQEAKR, peptide start residue: 110) (UniProt Q9HD33) | 0.491
C12orf4 (peptide sequence: ESLDSGNQNGGNDDKTK, peptide start residue: 385) (UniProt Q9NQ89) | -0.205
UniProt Q9H8G2 (peptide sequence: YILPTLEK, peptide start residue: 105) | 0.159
TUT1 (peptide sequence: GHEAAQEWSQGEAGK, peptide start residue: 742) (UniProt Q9H6E5) | -0.139
WASH6P (peptide sequence: QDDGSSSASPSVQGAPR, peptide start residue: 319) (UniProt Q9NQA3) | -0.235
UniProt Q9HCH0 (peptide sequence: RPGDPGSTPLR, peptide start residue: 652) | 0.452
IPPK (peptide sequence: SLVVAHAQR, peptide start residue: 20) (UniProt Q9H8X2) | 0.682
UniProt Q9HCM9 (peptide sequence: QLGSMVEIAK, peptide start residue: 83) | 0.294
TXNRD2 (peptide sequence: EILLSADHIIIATGGRPR, peptide start residue: 176) (UniProt Q9NNW7) | 0.262
TASP1 (peptide sequence: GMSSGEGLPSR, peptide start residue: 6) (UniProt Q9H6P5) | 0.38
UniProt Q9NQ31 (peptide sequence: LALEVLER, peptide start residue: 24) | -0.0704
DCP1A (peptide sequence: NASLSIYSIWFYDKNDCHR, peptide start residue: 99) (UniProt Q9NPI6) | 0.596
UniProt Q9H6W3 (peptide sequence: REPYGHLGPAELLEASPAAR, peptide start residue: 94) | -0.331
GOLPH3 (peptide sequence: AAGGGAGSSEDDAQSRR, peptide start residue: 28) (UniProt Q9H4A6) | -0.796
WDR76 (peptide sequence: NSNNEVACK, peptide start residue: 74) (UniProt Q9H967) | 0.8
TUBB1 (peptide sequence: ALSVAELTQQMFDAR, peptide start residue: 283) (UniProt Q9H4B7) | 0.336
MLXIPL (peptide sequence: WPPPEQWCK, peptide start residue: 211) (UniProt Q9NP71) | -0.552
SAP30L (peptide sequence: HLYICDFHK, peptide start residue: 70) (UniProt Q9HAJ7) | -0.467
UniProt Q9H6A9 (peptide sequence: GELQEEGAVGGAAEETGRR, peptide start residue: 558) | -0.00167
RPAP3 (peptide sequence: AIELQLQVK, peptide start residue: 7) (UniProt Q9H6T3) | -0.128
PPP1R3E (peptide sequence: HVQIQLQR, peptide start residue: 115) (UniProt Q9H7J1) | -0.0911

Two records drawn at random from the list so far:
Target | log2 fold change
NRIP3 (peptide sequence: DSADLLPLDGLKK, peptide start residue: 39) (UniProt Q9NQ35) | 0.466
UniProt Q9HCM9 (peptide sequence: QLGSMVEIAK, peptide start residue: 83) | 0.294
